{"source": "the supplement of paper PMC10338343", "note": "± gives the standard deviation. This is a selection; strong and weak results do not stand in their true shares. The uncertainty is large for many entries.", "data": [{"system": "MILI (PIWIL2) piRISC loaded with L1MC piRNA (26 nt)", "test": "pre-steady-state target cleavage rate (min^-1); higher = faster piRNA-guided slicing of the target", "conditions": "guide: L1MC piRNA 5'p-UAACUAAAUACUAUGCAAGCUGUAGG; auxiliary factor: 500 nM mouse GTSF1", "procedure": "(§1)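 Cleave-'n-Seq: a library of target RNAs (target site embedded in constant flanks, ACAGCATTCCGCGTTAGTGATATCCG... 5' flank; DNA-blocked outside the site) at 0.1 nM was incubated with 1 nM active mouse MILI or MIWI piRISC (synthetic 5'-monophosphorylated piRNA guide) with or without 500 nM mouse GTSF1 at 33 °C for 1 min to 16 h. Uncleaved targets were sequenced and normalised to non-target controls, and the pooled three trials were fitted to a burst-and-steady-state model to give the pre-steady-state cleavage rate (min^-1; k3 is constrained to at most 1e-4). Sequence is the target site only; target names encode pairing extent (gX:gY) and contiguous / 1-mismatch / 2-mismatch / bulge geometry. Fits with R² ≤ 0 are excluded.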", "values": [{"sequence": "UCCUGGAACAGGAUGCAUAGUAUUUACAAA", "pre-steady-state target cleavage rate": "0.0486 ± 0.017"}, {"sequence": "UCCUGGAUGUGCUUGCAUAGUAAUUUGUUA", "pre-steady-state target cleavage rate": "0.0141 ± 0.0071"}, {"sequence": "UCCUGGAUGUCGAUGCUUAGUAUUUAGAUA", "pre-steady-state target cleavage rate": "0.000865 ± 0.012"}, {"sequence": "UCCUGGUACUCCUUGCAUAGUAUUUACAAA", "pre-steady-state target cleavage rate": "0.0123 ± 0.006"}, {"sequence": "UCCUGGAUGAGGAAGCAUAGUAUUUACAAA", "pre-steady-state target cleavage rate": "0.00235 ± 0.0055"}, {"sequence": "UCCUGCUACUCGUUGCAUAGUAUUUAGAAA", "pre-steady-state target cleavage rate": "0.179 ± 0.032"}, {"sequence": "UCCUGGAUGUGCUGUGCAUAGUAUUUAGUUA", "pre-steady-state target cleavage rate": "0.131 ± 0.015"}, {"sequence": "UCCUGGAUGUCGAACGAUAGUAUUUAAGUUA", "pre-steady-state target cleavage rate": "0.000174 ± 0.031"}, {"sequence": "UCCUGGAUGUGCUUGCAUAGUAUAUACUUA", "pre-steady-state target cleavage rate": "0.0036 ± 0.0047"}, {"sequence": "UCCUGGAUGUCCUUGGAUACUAUUUAGUUA", "pre-steady-state target cleavage rate": "0.0119 ± 0.0061"}, {"sequence": "UCCUGGAUGUGCUUGCAUAGUAUCUUAGUUA", "pre-steady-state target cleavage rate": "0.135 ± 0.019"}, {"sequence": "UCCUGGAUGAGCUUGCAUAGUAUUUGUUA", "pre-steady-state target cleavage rate": "0.118 ± 0.028"}]}, {"system": "MILI (PIWIL2) piRISC loaded with L1MC piRNA (26 nt)", "test": "pre-steady-state target cleavage rate (min^-1); MIWI and MILI are mouse PIWI proteins and EfPiwi is from a freshwater sponge; tags in brackets are library labels; higher = faster piRNA-guided slicing of the target", "conditions": "guide: L1MC piRNA 5'p-UAACUAAAUACUAUGCAAGCUGUAGG; auxiliary factor: none (no GTSF1)", "procedure": "as §1", "values": [{"sequence": "UCCUGGAACAGGAUGCAUAGUAUUUACAAA", "pre-steady-state target cleavage rate": "0.000307 ± 0.014"}, {"sequence": "UCCUGGAUGUCGAUGCAUAGUAUUUUGUAA", "pre-steady-state target cleavage rate": "0.000658 ± 0.0076"}, {"sequence": "UCCUGGUACAGCUUGCAUAGAAUUUUCAAA", "pre-steady-state target cleavage rate": "0.00121 ± 0.0073"}, {"sequence": "UCCUGGAUGUGCUUGCAUAGUAAUUUGUUA", "pre-steady-state target cleavage rate": "0.00133 ± 0.0053"}, {"sequence": "UCCUGGAUGUCGAUCGAUAGUAUUUAGUUA", "pre-steady-state target cleavage rate": "0.000159 ± 0.015"}, {"sequence": "UCCUCCUACAGCUUGGUUAGUAUUUAGAAA", "pre-steady-state target cleavage rate": "0.00118 ± 0.0043"}, {"sequence": "UCCUGGAUGUCGAUGCUUAGUAUUUAGAUA", "pre-steady-state target cleavage rate": "0.000389 ± 0.013"}, {"sequence": "UCCUCCUACAGCUUGGAUAGUAUUUAGAAA", "pre-steady-state target cleavage rate": "0.00116 ± 0.0051"}, {"sequence": "UCCUGGUACUCCUUGCAUAGUAUUUACAAA", "pre-steady-state target cleavage rate": "0.000808 ± 0.0082"}, {"sequence": "UCCUGGAUGAGGAAGCAUAGUAUUUACAAA", "pre-steady-state target cleavage rate": "0.000461 ± 0.011"}, {"sequence": "UCCUGGAUGUCGAACGAUAGUAUCUUAGUUA", "pre-steady-state target cleavage rate": "0.000127 ± 0.032"}, {"sequence": "UCCUGCUACUCGUUGCAUAGUAUUUAGAAA", "pre-steady-state target cleavage rate": "0.00107 ± 0.0047"}, {"sequence": "UCCUGGAUGUGCUGUGCAUAGUAUUUAGUUA", "pre-steady-state target cleavage rate": "0.00886 ± 0.004"}, {"sequence": "UCCUGGAUGUCGAACGAUAGUAUUUAAGUUA", "pre-steady-state target cleavage rate": "< 0.0001"}, {"sequence": "UCCUGGAUGAGCUUGCAUAGUAUUUAGUCA", "pre-steady-state target cleavage rate": "0.00259 ± 0.0036"}, {"sequence": "UCCUGGAUGACCUUGCAUAGUAUUUAGUAA", "pre-steady-state target cleavage rate": "0.00317 ± 0.0036"}, {"sequence": "UCCUGGAUGUCCUUGCAUAGAAUAUAGUUA", "pre-steady-state target cleavage rate": "0.00134 ± 0.0046"}, {"sequence": "UCCUGGAUGUGCUUGCAUAGUAUAUACUUA", "pre-steady-state target cleavage rate": "0.000837 ± 0.0077"}, {"sequence": "UCCUGGAUGUCCUUGGAUACUAUUUAGUUA", "pre-steady-state target cleavage rate": "0.0016 ± 0.0052"}, {"sequence": "UCCUGGAUGUGCUUGCAUAGUAUCUUAGUUA", "pre-steady-state target cleavage rate": "0.0069 ± 0.0028"}, {"sequence": "UCCUGGUACAGCAACCAUAGUAUUUAGAAA", "pre-steady-state target cleavage rate": "0.00109 ± 0.0064"}, {"sequence": "UCCUCCUACAGGAAGCAUAGUAUUUAGAAA", "pre-steady-state target cleavage rate": "0.000802 ± 0.0069"}, {"sequence": "UCCUGGAUGUCCUUGCAUAGUAAAAAGUAA", "pre-steady-state target cleavage rate": "0.00142 ± 0.0043"}, {"sequence": "UCCUGGAUCAGCUUGCAUAGUAUUUUGAUA", "pre-steady-state target cleavage rate": "0.00131 ± 0.005"}, {"sequence": "UCCUGGAUCAGCAUGCAUAGUAUUUUCAAA", "pre-steady-state target cleavage rate": "0.00126 ± 0.0035"}, {"sequence": "UCCUCCUACAGCUUGCAUAGUAUUAUCUAA", "pre-steady-state target cleavage rate": "0.00137 ± 0.0044"}, {"sequence": "UCCUGGAUGAGCUUGCAUAGUAUUUGUUA", "pre-steady-state target cleavage rate": "0.00158 ± 0.0045"}]}]}
